Assay results from PubChem BioAssay AID1307 (SRMLSC, 2008).
Among all 1,200 compounds or so, fewer than 10 were called active.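 Rule for the calls: active = inhibition reaching a set limit at one or more tested concentrations; inactive = inhibition under that limit at every dose.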 The list shows a part of the results. Entries with a potency or affinity are not part of this list.

Experiment: RAM pathway signaling blockade in S. cerevisiae – dose response (AID 1307);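 note: 0% = DMSO vehicle wells and 100% = 10 µM 1-NA-PP1 control; higher inhibition means more yeast growth since RAM block rescues cells from 5-FOA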
Settings: S. cerevisiae RAM network URA3 reporter, 5-FOA growth OD615, hits give high values, yeast express analog-sensitive mutant Cbk1 kinase; at 100 µM unless noted

Max inhibition, inactive:
CCCCC(=O)Nc1cccc(-c2csc(-c3ccccc3)n2)c1 4.92%
CCCCCCOC(=O)C(C#N)c1nc2ccccc2nc1N1CCCCC1 (stereo not given) 10%
Cc1noc(C)c1COc1cccc(C(=O)Nc2ccc(OCc3ccccc3)cc2)c1 6.94%
C=CCn1c(SCC(=O)/C(C#N)=C(\C)N)nc2sc(CC)cc2c1=O 19.3%
O=C(OCc1ccccc1)C1=[N+]([O-])OC(C(=O)OCc2ccccc2)C1c1c[nH]c2ccccc12 (stereo not given) 3.54%
COc1cccc(-c2ccc(C#N)c(OC(=O)c3c(Cl)cccc3Cl)n2)c1 3.76%
CC(C)OCCCNC(=O)c1c(N)n(/N=C/c2ccccn2)c2nc3ccccc3nc12 12.1%
O=C(/C=C/c1ccc2c(c1)OCO2)NCCSCc1ccc(Cl)cc1Cl 1.8% [at 3.125 µM]
Cc1ccc(C(=O)OCC(=O)Nc2cc(S(=O)(=O)N3CCOCC3)ccc2C)cc1 2.57% [at 0.782 µM]
CCOc1ccc(-c2c(C(=O)N/N=C/c3ccc(OC)cc3)nnn2-c2nonc2N)cc1 2.43% [at 50 µM]
COc1ccc(/C=C2\SC(=S)N(CC(=O)OCC(=O)Nc3ccc(C)cc3Cl)C2=O)cc1 9.7%
CCn1c(=O)c(C(=O)NCCc2ccccc2)c(O)c2ccccc21 2.35%
C=CCN1C(=O)/C(=C\c2cc(Br)c(OCc3ccccn3)c(OC)c2)SC1=S 2.45% [at 12.5 µM]
CCN(CC)S(=O)(=O)c1cccc(NC(=O)CCSc2ccc(Cl)cc2)c1 4.46% [at 6.25 µM]
COc1cccc(CN(Cc2ccco2)S(=O)(=O)c2ccc(S(=O)(=O)NCc3ccccc3)cc2)c1OC 3.28% [at 50 µM]
CCCCOc1ccccc1NC(=O)c1scc2c1OCCO2 5.83% [at 50 µM]
COc1ccc2c(c1)CCc1c(C(=O)N3CCc4ccccc4C3)noc1-2 1.93% [at 12.5 µM]
O=C(/C(=N/N=C/c1ccc(O)c(O)c1O)c1ccccc1)c1ccccc1 1.69% [at 12.5 µM]
CC(=O)Oc1cccc(N2C(=O)c3ccc(C(=O)Nc4c[nH]c(=O)[nH]c4=O)cc3C2=O)c1 5.04%
CCNc1ccc2noc3c2c1C(=O)c1ccccc1-3 14.9%
O=C(O)COc1ccc(/C=N/n2c(COc3ccccc3)nc3ccccc3c2=O)cc1 7.18%
CSc1ccccc1-c1nnc(-c2ccc(Cl)cc2)o1 3.84% [at 50 µM]
O=C(CCC(=O)OCc1cccc(C(=O)Oc2ccccc2)c1)Nc1cccc2ccccc12 4.5% [setting not given]
N#Cc1ccc(-c2cccnc2)nc1SCc1ccc(Cl)c(Cl)c1 11.2%
COC(=O)c1ccc(C2C(Oc3ccccc3C)C(=O)N2CCc2ccc(OC)c(OC)c2)cc1 (stereo not given) 2.83%
CCC/C=C(\CCC)C(NS(=O)(=O)c1cccc2cccnc12)c1ccc(C(=O)OC)cc1 (stereo not given) 3.88% [at 50 µM]
Cc1ccc(C(=O)/C=C/c2c(C)nn(-c3ccccc3)c2Cl)cc1 4.92%
O=C(CSc1ccccc1)N(c1ccc(Br)cc1)c1nccs1 3.88% [at 3.125 µM]
COc1cc(CC(NC(C)=O)C(=O)NC2CCN(c3c(Cc4ccccc4)c(C)nc4ncnn34)CC2)cc(OC)c1 (stereo not given) 3.02% [at 25 µM]
CCc1c(C#N)c(SCc2c(C)noc2C)nc2c1C(=O)CC(C)(C)C2 7.41% [at 0.196 µM]
CCOC(=O)c1cc(C#N)c(Oc2cccc(C(F)(F)F)c2)nc1-c1ccccc1 2.36%
CC(CCc1ccco1)NC(=O)c1cccc2c1C(=O)N(C1CCCCC1)C2 (stereo not given) 1.69% [at 12.5 µM]
COc1ccccc1N(C)S(=O)(=O)c1ccc(C(=O)OCC(=O)NCCC2=CCCCC2)cc1 3.89% [at 50 µM]
CC1CCCCN1S(=O)(=O)c1ccc(S(=O)(=O)N(Cc2ccccc2)Cc2ccco2)cc1 (stereo not given) 3.06%
C=CCSc1nc(-c2ccc(OC)cc2)c(C#N)c(=O)n1CC=C 2.69%
c1ccc2cc(Sc3ncnc4c3oc3ccccc34)ccc2c1 17.3%
COc1ccc(-c2ccc(-c3noc(C4CCCCC4)n3)c(OC)n2)cc1 3.89% [at 50 µM]
Cc1ccc(NS(=O)(=O)c2ccc(C3CCCCC3)cc2)cc1 7.85%
CCCSC1=N/C(=C/c2ccsc2)C(=O)N1c1ccccc1 4.13%
CCOc1ccc(/C=C2/SC(=S)N(C(C(=O)O)c3ccccc3)C2=O)cc1OCC (stereo not given) 3.65%
CCOC(=O)C1=C(c2ccccc2)N=c2s/c(=C\c3cc(OC)c(OC)c(OC)c3)c(=O)n2C1c1cccs1 (stereo not given) 14.2%
O=C(Nc1ccc(Cl)c([N+](=O)[O-])c1)C(Sc1ccccc1)c1ccccc1 (stereo not given) 1.17% [at 0.782 µM]
Cc1ccccc1N/C(SCc1ccc(Cl)cc1)=C(/C#N)C(=O)NCc1ccco1 1.63% [at 25 µM]
COc1cccc(N/C(SCc2ccccc2Cl)=C(/C#N)C(=O)NCc2cccs2)c1 2.47%
COc1cccc(-c2cc(C(F)(F)F)nc(N3CCN(c4ccccc4)CC3)n2)c1 3.29%
Cc1ccc(NC(=O)COc2ccc(-n3ccnc3)cc2)cc1Cl 1.34% [at 0.196 µM]
CCSC1=N/C(=C/c2ccsc2)C(=O)N1c1ccccc1 3.18%
O=C(/C=C/c1ccc(-c2ccccc2[N+](=O)[O-])o1)c1ccccc1 5.8% [at 25 µM]
Cc1ccc(-c2nc3cccnc3s2)cc1NS(=O)(=O)c1ccc2c(c1)OCCO2 8.35%
Cc1[nH]n(-c2ncc(-c3ccccc3)s2)c(=O)c1C(c1ccc(Cl)cc1)C(C#N)C#N (stereo not given) 5.53%

For reference, some entries already given:
Max inhibition, inactive:
O=C(CSc1ccccc1)N(c1ccc(Br)cc1)c1nccs1 3.88% [at 3.125 µM]
COc1cc(CC(NC(C)=O)C(=O)NC2CCN(c3c(Cc4ccccc4)c(C)nc4ncnn34)CC2)cc(OC)c1 (stereo not given) 3.02% [at 25 µM]
CCc1c(C#N)c(SCc2c(C)noc2C)nc2c1C(=O)CC(C)(C)C2 7.41% [at 0.196 µM]
